Reference: PubChem BioAssay AID1224830 (NIAID, 2016)
This is an unselected part of about 18,000 reagents. About 2,900 of them (16%) count as active. 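Calls are made per well; low scores hint the gene aids the LPS response, high scores that it dampens it.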 Repeated entries: four replicate wells of each siRNA pool.

- Assay: 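Regulators of TLR4 signalling towards TNF-alpha in macrophage-like cells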 (primary screen)
- Cell system: human THP-1 monocytic leukaemia cells, TNF dual-luciferase reporter clone, PMA-differentiated to macrophage-like cells
- Reagents: siRNA pool against human genes, 50 nM
- Duration: LPS for 4 h, given about 3 days after siRNA transfection
- Treatment: bacterial LPS (TLR4 ligand), 10 ng/ml
- Detection: 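Ratio of firefly to renilla light, scaled to the plate median and expressed as a robust z-score per replicate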
- Reading the numbers: TNF reporter robust z-score: higher = stronger TNF reporter response to LPS
- Call rule: 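a well is active when its z-score exceeds 2.8 or falls below -1.5; control wells carry no call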

Silencing of SLC38A6 came out at: TNF reporter robust z-score -0.93; inactive.
SLC38A6 scored TNF reporter robust z-score -0.86; inactive.
Depletion of SLC38A6 resulted in: TNF reporter robust z-score -0.57; inactive.
Depletion of SLC38A6 came out at: TNF reporter robust z-score -0.51; inactive.
INSM1 showed TNF reporter robust z-score -1.24; inactive.
INSM1 showed TNF reporter robust z-score -0.19; inactive.
After knock-down of INSM1, the record shows TNF reporter robust z-score -0.31; inactive.
For INSM1, the values are TNF reporter robust z-score -0.4; inactive.
After knock-down of LMNB2, the record shows TNF reporter robust z-score -0.5; inactive.
For LMNB2 the deposit lists TNF reporter robust z-score -0.47; inactive.
With knock-down of LMNB2, the screen gave TNF reporter robust z-score -0.77; inactive.
After knock-down of LMNB2, the record shows TNF reporter robust z-score -0.55; inactive.
Against NLRP1, the values are TNF reporter robust z-score -0.01; inactive.
Against NLRP1, the values are TNF reporter robust z-score -0.13; inactive.
NLRP1 scored TNF reporter robust z-score -0.2; inactive.
Silencing of NLRP1 came out at: TNF reporter robust z-score -0.19; inactive.

The listing continues:
Depletion of PM20D2 gave: TNF reporter robust z-score 0.04; inactive.
Knock-down of PM20D2 came out at: TNF reporter robust z-score 0.25; inactive.
Against PM20D2 the deposit lists TNF reporter robust z-score 0.05; inactive.
PM20D2 gave TNF reporter robust z-score 0.24; inactive.
Depletion of NUDT16 came out at: TNF reporter robust z-score 0.9; inactive.
NUDT16 gave TNF reporter robust z-score 0.22; inactive.
For NUDT16 the deposit lists TNF reporter robust z-score 1.54; inactive.
For NUDT16 the deposit lists TNF reporter robust z-score 0.72; inactive.
After knock-down of GNG2, the record shows TNF reporter robust z-score 0.02; inactive.
GNG2 gave TNF reporter robust z-score 0.87; inactive.
Silencing of GNG2 came out at: TNF reporter robust z-score 0.33; inactive.
GNG2 scored TNF reporter robust z-score 0.53; inactive.
Knock-down of HTRA3 came out at: TNF reporter robust z-score 1.45; inactive.
Against HTRA3, the entry reads TNF reporter robust z-score 0.85; inactive.
HTRA3 scored TNF reporter robust z-score -0.15; inactive.
With knock-down of HTRA3, the screen gave TNF reporter robust z-score -0.31; inactive.
For KLF4 the deposit lists TNF reporter robust z-score -0.45; inactive.
Against KLF4, the values are TNF reporter robust z-score -0.24; inactive.
After knock-down of KLF4 the results were TNF reporter robust z-score -0.66; inactive.
KLF4 scored TNF reporter robust z-score -1.02; inactive.
Depletion of MUC2 resulted in: TNF reporter robust z-score -0.69; inactive.
Against MUC2 the deposit lists TNF reporter robust z-score -0.25; inactive.
MUC2 scored TNF reporter robust z-score -1.08; inactive.
After knock-down of MUC2, the record shows TNF reporter robust z-score -0.14; inactive.
After knock-down of ZNF275 the results were TNF reporter robust z-score 1.94; inactive.
ZNF275 scored TNF reporter robust z-score 1.55; inactive.
Against ZNF275, the values are TNF reporter robust z-score 0.9; inactive.
With knock-down of ZNF275, the screen gave TNF reporter robust z-score 1.43; inactive.
ACADVL gave TNF reporter robust z-score 0.16; inactive.
Against ACADVL, the entry reads TNF reporter robust z-score 0.3; inactive.
For ACADVL, the values are TNF reporter robust z-score 0.11; inactive.
Against ACADVL, the entry reads TNF reporter robust z-score 0.64; inactive.
